Data published in publication PMC5707034.
Results are given in words; binding and its absence hold for the method and conditions named. In cells and extracts the contact can be indirect. Some binding calls cover weakened binding; strength is not graded here. For some of these results: Sequences can lack the tags named with a protein.

Chains of the proteins cited; added tags and fusions are not shown.
UniProt Q03135: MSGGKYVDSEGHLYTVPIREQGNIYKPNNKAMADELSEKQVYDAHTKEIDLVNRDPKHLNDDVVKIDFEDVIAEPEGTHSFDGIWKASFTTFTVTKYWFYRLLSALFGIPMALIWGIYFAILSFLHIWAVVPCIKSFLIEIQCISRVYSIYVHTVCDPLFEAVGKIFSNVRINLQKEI

T1: Flag-tagged MIM-B (missing in metastasis B; metastasis suppressor 1) (human) (UniProt O43312)
T1 sequence: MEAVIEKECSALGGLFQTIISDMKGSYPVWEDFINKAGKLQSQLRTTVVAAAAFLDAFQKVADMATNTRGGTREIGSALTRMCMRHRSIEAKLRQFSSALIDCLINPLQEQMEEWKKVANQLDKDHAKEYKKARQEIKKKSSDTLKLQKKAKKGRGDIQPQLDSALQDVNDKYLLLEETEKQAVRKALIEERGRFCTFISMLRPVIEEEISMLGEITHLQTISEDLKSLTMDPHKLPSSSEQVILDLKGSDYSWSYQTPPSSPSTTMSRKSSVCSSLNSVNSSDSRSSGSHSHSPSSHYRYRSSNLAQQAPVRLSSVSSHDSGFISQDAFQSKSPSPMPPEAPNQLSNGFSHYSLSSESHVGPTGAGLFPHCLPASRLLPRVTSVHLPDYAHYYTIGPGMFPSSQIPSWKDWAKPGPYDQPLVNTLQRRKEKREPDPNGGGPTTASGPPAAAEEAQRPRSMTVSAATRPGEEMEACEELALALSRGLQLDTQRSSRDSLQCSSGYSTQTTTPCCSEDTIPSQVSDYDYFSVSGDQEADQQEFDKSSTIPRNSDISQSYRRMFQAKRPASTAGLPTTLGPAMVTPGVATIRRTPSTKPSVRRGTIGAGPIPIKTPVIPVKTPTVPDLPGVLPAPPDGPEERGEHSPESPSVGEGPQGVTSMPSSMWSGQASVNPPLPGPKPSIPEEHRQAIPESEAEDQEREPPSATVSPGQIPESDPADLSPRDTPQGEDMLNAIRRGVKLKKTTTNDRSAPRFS

T2: MIM-B (endogenous) (human (endogenous in MHCC97H)) (UniProt O43312)
T2 sequence: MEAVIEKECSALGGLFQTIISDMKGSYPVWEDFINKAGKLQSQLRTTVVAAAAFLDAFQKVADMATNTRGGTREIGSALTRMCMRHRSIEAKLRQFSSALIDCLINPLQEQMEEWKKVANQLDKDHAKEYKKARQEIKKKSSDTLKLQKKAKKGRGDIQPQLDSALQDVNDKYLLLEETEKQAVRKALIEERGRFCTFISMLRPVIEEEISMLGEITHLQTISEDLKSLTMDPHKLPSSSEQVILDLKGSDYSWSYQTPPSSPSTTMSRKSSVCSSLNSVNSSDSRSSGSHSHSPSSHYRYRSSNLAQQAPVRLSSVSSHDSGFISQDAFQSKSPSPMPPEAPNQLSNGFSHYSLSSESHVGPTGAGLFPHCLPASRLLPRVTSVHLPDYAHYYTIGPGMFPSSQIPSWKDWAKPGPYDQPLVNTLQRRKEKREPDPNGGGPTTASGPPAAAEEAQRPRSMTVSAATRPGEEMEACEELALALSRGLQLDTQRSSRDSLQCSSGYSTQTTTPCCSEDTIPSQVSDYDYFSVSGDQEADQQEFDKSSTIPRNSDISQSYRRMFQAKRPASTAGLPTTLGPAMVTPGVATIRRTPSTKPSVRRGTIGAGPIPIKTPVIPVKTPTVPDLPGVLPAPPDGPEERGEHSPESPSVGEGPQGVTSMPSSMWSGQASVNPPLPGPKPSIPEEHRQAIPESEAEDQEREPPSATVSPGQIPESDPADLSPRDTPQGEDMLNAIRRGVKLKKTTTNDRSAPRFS


What was measured:
[1] = biological target: T1, Flag-tagged MIM-B (missing in metastasis B; metastasis suppressor 1) (human); experiment: co-IP; cells transfected with MIM-B lacking IMD or WH2 (pcDNA-3.1), compared with MIM-B; which protein was precipitated not given; RIPA lysis buffer, 4°C
[2] = biological target: T2, MIM-B (endogenous) (human (endogenous in MHCC97H)); experiment: co-IP; endogenous proteins in MHCC97H cells; immunoprecipitation with anti-MIM-B or anti-caveolin-1 polyclonal antibodies, each in turn; RIPA lysis buffer (1% NP-40, 50 mM Tris-HCl pH 7.4, 150 mM NaCl, 1 mM EDTA), 4°C
[3] = biological target: T1, Flag-tagged MIM-B (missing in metastasis B; metastasis suppressor 1) (human); experiment: co-IP; Flag-MIM-B transfected into Hep3B and SMMC7721 cells; anti-Flag immunoprecipitation, anti-caveolin-1 immunoblot; RIPA lysis buffer (1% NP-40, 50 mM Tris-HCl pH 7.4, 150 mM NaCl, 1 mM EDTA), 4°C, protein A/G sepharose
[4] = biological target: caveolin-1 (endogenous) (human (endogenous in Hep3B, SMMC7721 and MHCC97H)) (UniProt Q03135); experiment: co-IP; endogenous proteins in MHCC97H cells; immunoprecipitation with anti-MIM-B or anti-caveolin-1 polyclonal antibodies, each in turn; RIPA lysis buffer (1% NP-40, 50 mM Tris-HCl pH 7.4, 150 mM NaCl, 1 mM EDTA), 4°C

Row | Molecule | binding [1] | binding [2] | binding [3] | binding [4]
1 | caveolin-1 (endogenous) (from UniProt Q03135 1-178) | binds | binds | binds | –
2 | MIM-B (endogenous) (protein, UniProt O43312 1-755) MEAVIEKECSALGGLFQTIISDMKGSYPVWEDFINKAGKLQSQLRTTVVAAAAFLDAFQKVADMATNTRGGTREIGSALTRMCMRHRSIEAKLRQFSSALIDCLINPLQEQMEEWKKVANQLDKDHAKEYKKARQEIKKKSSDTLKLQKKAKKGRGDIQPQLDSALQDVNDKYLLLEETEKQAVRKALIEERGRFCTFISMLRPVIEEEISMLGEITHLQTISEDLKSLTMDPHKLPSSSEQVILDLKGSDYSWSYQTPPSSPSTTMSRKSSVCSSLNSVNSSDSRSSGSHSHSPSSHYRYRSSNLAQQAPVRLSSVSSHDSGFISQDAFQSKSPSPMPPEAPNQLSNGFSHYSLSSESHVGPTGAGLFPHCLPASRLLPRVTSVHLPDYAHYYTIGPGMFPSSQIPSWKDWAKPGPYDQPLVNTLQRRKEKREPDPNGGGPTTASGPPAAAEEAQRPRSMTVSAATRPGEEMEACEELALALSRGLQLDTQRSSRDSLQCSSGYSTQTTTPCCSEDTIPSQVSDYDYFSVSGDQEADQQEFDKSSTIPRNSDISQSYRRMFQAKRPASTAGLPTTLGPAMVTPGVATIRRTPSTKPSVRRGTIGAGPIPIKTPVIPVKTPTVPDLPGVLPAPPDGPEERGEHSPESPSVGEGPQGVTSMPSSMWSGQASVNPPLPGPKPSIPEEHRQAIPESEAEDQEREPPSATVSPGQIPESDPADLSPRDTPQGEDMLNAIRRGVKLKKTTTNDRSAPRFS | – | – | – | binds
